Percent effect of library compounds

The values are deposited in ChEMBL (CHEMBL3988442, “University of Dundee, Small-Polar-MMV Screening Library” (2021)).

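Whole-cell growth test on Mycobacterium tuberculosis, read after 4 days in a medium based on cholesterol and the lipid DPPC; the read-out is not stated. Concentration: 500 µM. The record gives no direction; compounds that gave an IC50 in retests scored well above the rest, so higher reads as more growth inhibition. About 18,000 compounds were tested under these conditions; 5% (about 900) showed 50% or more at least once.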

Results are given as percent effect.
The controls that fix the scale are not given in the record; negative values are as filed.
The compounds are a random part of those screened.

Compound,effect
COCCN1CCN(Cc2cccn2C)CC1=O,-3.53%
O=C(c1ccoc1)N1CCC(NC2CCSCC2)CC1,30.55%
C=C(C)CNC(=O)Nc1cc(F)cc(OC)c1,-0.955%
Cc1ccoc1C(=O)N(C)Cc1snnc1C,9.619%
CCNC(=O)CCS(=O)(=O)c1cccc(Cl)c1,-1.415%
COC(=O)C1CC2(CC(N)C2)C1 (configuration not stated),1.689%
CC1(C)CC(NC(=O)CC#N)CC(C)(C)N1,-57.16%
CCC(CC#N)NC(=O)Cc1cccnc1 (configuration not stated),-14.19%
CCOc1nc(N2CC(O)C2)ncc1Br,-21.95%
CN(C)C(=O)CCCS(=O)(=O)CC(=O)N1CCCCC1,-9.053%
Cc1ccc(OC(C)CN)cc1 (configuration not stated),94.8%
CCO[C@H]1COC[C@@H]1NC(=O)c1cn(CCN)nn1,6.916%
CN(Cc1cc2n(n1)CCNC2)Cc1nccs1,-6.809%
OCCNC1CCCCC1,-3.346%
CC(C)(C)OC(=O)N1CCN(C2CCC(N)CC2)CC1 (configuration not stated),56.48%
Cc1cccc(C(=O)NCC(C)N2CCCC2)n1 (configuration not stated),14.26%
O=C(COc1ccc(C(F)(F)F)cc1)NCCCO,29.73%
Cn1cc(CN2C(=O)c3ccccc3CS2(=O)=O)cn1,2.413%
Nc1nccc(-c2cncc(F)c2)n1,10.7%
O=S(=O)(c1cccs1)N(CCO)Cc1cccnc1,12.32%
CCCn1nnnc1NCc1ccsc1,70.63%
CSc1cccc(NC(=O)C2CCCN2C(C)=O)c1 (configuration not stated),34.46%
COc1cc(NC(=O)CN2CC(O)C2)cc(OC)c1,-0.4061%
NCCS(=O)(=O)NCc1ccc(F)cc1,0.06336%
COCCC(=O)N1CCC(Nc2ncccc2Br)CC1,56.79%
Cc1nc(CN2Cc3ccccc3CC2C(N)=O)c[nH]1 (configuration not stated),7.638%
COC(=O)C(C)SCc1noc(C2CC2)n1 (configuration not stated),40.83%
CCN(CCO)Cc1cc(=O)n2ccsc2n1,-16.34%
O=C(Cc1cccc(O)c1)NCC1CCNCC1,1.32%
COCc1ccccc1CNC(=O)Nc1ncnn1C,2.286%
CN(Cc1nc(-c2ccc(F)cc2)cs1)CC(O)CO (configuration not stated),49.42%
Cc1ccc(S(N)(=O)=O)cc1N(C)C,-7.686%
CN1CCC(Oc2ccc(C(N)=O)cn2)CC1,5.057%
c1cn2c(n1)CCC2,-0.9291%
O=C(Cc1n[nH]c(=O)c2ccccc12)N1CCC1,-19.91%
CCOc1ccc2c(c1)C(=O)NC2=O,-1.727%
CC(O)(CCN)c1ccccc1 (configuration not stated),6.479%
Cc1nnc(CN(C)C(=O)c2c(C)noc2C)o1,9.741%
OCc1ccc(Cl)cc1-n1cncn1,-6.634%
C1CCC(C2CCNCC2)OC1 (configuration not stated),-4.875%
O=C(NCc1ccc2c(c1)OCO2)n1ccnc1,-5.849%
CCn1c(CN2CCC(F)CC2)nnc1[C@H]1C[C@@H](N)C1,-1.838%
COCCNCCNC(=O)c1ccc(C#N)cc1,-3.841%
COCCC1(C(=O)NCc2cc(Cl)ccn2)CC1,3.741%
O=C(c1cncc(-c2cn[nH]c2)n1)N1CCCCC1,-20.32%
COC(=O)Nc1ccc(S(=O)(=O)NC2CCNC2)cc1 (configuration not stated),-3.748%
CCCN(CC(N)=O)S(=O)(=O)N1CCCCC1,-4.305%
NC(=O)COc1cccc(NC(=O)c2ccc(Br)o2)c1,17.5%
CCC(=O)NCC(C)(NC(=O)CC)C(F)(F)F (configuration not stated),-8.174%
COc1ccc(C)cc1NC(=O)CSc1nncn1C,-25.68%

Once more, the final 3:

With NC(=O)COc1cccc(NC(=O)c2ccc(Br)o2)c1 the screen gave 17.5%.
With CCC(=O)NCC(C)(NC(=O)CC)C(F)(F)F (configuration not stated) the screen gave -8.174%.
With COc1ccc(C)cc1NC(=O)CSc1nncn1C the screen gave -25.68%.